Data published in article PMC4820897, “Structural insight in the toppling mechanism of an energy-coupling factor transporter” (Nature Communications, 2016).

Tests used:
[1] = target: EcfA of the ECF module from Lactobacillus delbrueckii subsp. bulgaricus (Lactobacillus delbrueckii subsp. bulgaricus); assay: crystal structure; AMP–PNP-bound ECF–FolT2 complex, 3.3 Å; crystallised with 10 mM MgCl2, 10 mM AMP–PNP and 1 μM folate; complex purified in DDM; both purified
[2] = target: EcfA′ of the ECF module from Lactobacillus delbrueckii subsp. bulgaricus (Lactobacillus delbrueckii subsp. bulgaricus); assay: as above
[3] = target: EcfA of the ECF module from Lactobacillus delbrueckii subsp. bulgaricus (Lactobacillus delbrueckii subsp. bulgaricus); assay: co-purification (Ni2+-sepharose by the His10 tag on EcfA, then SEC); ECF–FolT1 complex co-expressed in E. coli, solubilised from membrane vesicles; the protocol is told for ECF–FolT2 (1% DDM, 50 mM KPi pH 7.5, 300 mM NaCl)
[4] = target: EcfA of the ECF module from Lactobacillus delbrueckii subsp. bulgaricus (Lactobacillus delbrueckii subsp. bulgaricus); assay: crystal structure; apo ECF–FolT2 complex (no nucleotides or folate), 3.0 Å; complex purified in DDM; both purified
[5] = target: EcfA′ of the ECF module from Lactobacillus delbrueckii subsp. bulgaricus (Lactobacillus delbrueckii subsp. bulgaricus); assay: as above

Measured: binding

B1: EcfT of the ECF module from Lactobacillus delbrueckii subsp. bulgaricus (protein, UniProt Q1GBI8 1-265)
chain: MSKIIIGRYLPGTTFVYRVDPRAKLLTTFYFIIMIFLANNWVSYLVISIFGLAYVFATGLKARVFWDGVKPMIWMIVFTSLLQTFFMAGGKVYWHWWIFTLSSEGLINGLYVFIRFAMIILVSTVMTVTTKPLEIADAMEWMLTPLKLFKVNVGMISLVISIALRFVPTLFDQTVKIMNAQRSRGADFNDGGLVKRAKSVVPMLVPLFIDSLEVALDLSTAMESRGYKGSEGRTRYRILEWSKVDLIPVAYCLLLTILMITTRKH
binds: all assays above

Results are given in words; binding and its absence hold for the method and conditions named. Binding can be weak; no strength is given. For some assays here: Binding seen in cells or lysates may run through a third protein.
